The supplement of paper PMC4604168 (melanoma cell lines)
This is one part of the list. Repeats are few or missing, and single values can be far off.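 Imaging used 1,536-well plates; nuclei positive for cleaved PARP by antibody were divided by total DNA-stained nuclei to yield the apoptosis fraction. Doses for screening kept most cells viable, and cell lines differ markedly in resting and induced cleaved-PARP levels.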

What was measured:
Experiment in all cases: cleaved PARP positive nuclei fraction relative to DMSO control; melanoma cells; higher = more apoptosis
Details in all cases: library dose: low library concentration; 72 h
MZ2-MEL = test system: MZ2-MEL
MeWo = test system: MeWo
RPMI7951 = test system: RPMI7951
RVH-421 = test system: RVH-421
SkMel28 = test system: SkMel28
SkMel2 = test system: SkMel2
SkMel30 = test system: SkMel30
UACC62 = test system: UACC62
WM115 = test system: WM115
WM1716 = test system: WM1716
WM1745 = test system: WM1745
WM3526 = test system: WM3526
WM3619 = test system: WM3619
WM451Lu = test system: WM451Lu

Compound	cleaved PARP positive nuclei fraction (MZ2-MEL) [%]	cleaved PARP positive nuclei fraction (MeWo) [%]	cleaved PARP positive nuclei fraction (RPMI7951) [%]	cleaved PARP positive nuclei fraction (RVH-421) [%]	cleaved PARP positive nuclei fraction (SkMel28) [%]	cleaved PARP positive nuclei fraction (SkMel2) [%]	cleaved PARP positive nuclei fraction (SkMel30) [%]	cleaved PARP positive nuclei fraction (UACC62) [%]	cleaved PARP positive nuclei fraction (WM115) [%]	cleaved PARP positive nuclei fraction (WM1716) [%]	cleaved PARP positive nuclei fraction (WM1745) [%]	cleaved PARP positive nuclei fraction (WM3526) [%]	cleaved PARP positive nuclei fraction (WM3619) [%]	cleaved PARP positive nuclei fraction (WM451Lu) [%]
NC(=O)c1ccc(N(C(N)=O)c2c(F)cccc2F)nc1-c1ccc(F)cc1F + Nc1cccc2c1CN(C1CCC(=O)NC1=O)C2=O [lenalidomide] (first compound 0.4 µM, partner dose 1 µM)	105	231	174	238	89.7	100	54.2	101	80.3	1250	104	20.9	79.6	81
C[C@@H](N)c1ccc(C(=O)Nc2ccnc3[nH]ccc23)cc1 + NC(=O)c1ccc(N(C(N)=O)c2c(F)cccc2F)nc1-c1ccc(F)cc1F [VX702] (first compound 0.4 µM, partner dose 0.4 µM)	49.4	242	44.2	373	48.6	138	29.6	97.1	94.7	389	113	112	73.2	60.7
CC1(C)CCC(c2ccc(Cl)cc2)=C(CN2CCN(c3ccc(C(=O)NS(=O)(=O)c4ccc(N[C@H](CCN5CCOCC5)CSc5ccccc5)c(S(=O)(=O)C(F)(F)F)c4)cc3)CC2)C1 + CCCS(=O)(=O)Nc1ccc(F)c(C(=O)c2c[nH]c3ncc(Cl)cc23)c1F [PLX4720] (first compound 0.4 µM, partner dose 0.08 µM)	217	267	210	219	55.7	99.4	354	278	509	108	1210	62.8	146	54.4
C[C@@H](N)c1ccc(C(=O)Nc2ccnc3[nH]ccc23)cc1 + CCCS(=O)(=O)Nc1ccc(F)c(C(=O)c2c[nH]c3ncc(Cl)cc23)c1F [PLX4720] (first compound 0.4 µM, partner dose 0.08 µM)	50.2	56.7	135	254	55.4	122	111	521	189	109	115	286	116	91.2
COc1ccc(C2=N[C@@H](c3ccc(Cl)cc3)[C@@H](c3ccc(Cl)cc3)N2C(=O)N2CCNC(=O)C2)c(OC(C)C)c1 [Nutlin-3] + CC(C)C[C@H](NC(=O)[C@H](Cc1ccccc1)NC(=O)c1cnccn1)B(O)O [Bortezomib] (first compound 0.1 µM, partner dose 0.001 µM)	88.7	90.8	104	185	88.6	108	102	57.9	92	263	101	48.6	250	97
CS(=O)(=O)c1ccc(C(=O)Nc2ccc(Cl)c(-c3ccccn3)c2)c(Cl)c1 [vismodegib] + Cn1nnc2c(C(N)=O)ncn2c1=O [temozolomide] (first compound 1 µM, partner dose 2 µM)	30.9	73	123	92.6	78.4	90.5	106	210	131	220	75.1	192	73.2	79.2
CC(=O)O[C@@]12CO[C@@H]1C[C@H](O)[C@@]1(C)C(=O)[C@H](O)C3=C(C)[C@@H](OC(=O)[C@H](O)[C@@H](NC(=O)OC(C)(C)C)c4ccccc4)C[C@@](O)([C@@H](OC(=O)c4ccccc4)[C@H]21)C3(C)C [Docetaxel] + CN(c1ncccc1CNc1nc(Nc2ccc3c(c2)CC(=O)N3)ncc1C(F)(F)F)S(C)(=O)=O [PF562271] (first compound 0.0001 µM, partner dose 0.08 µM)	648	686	510	53.5	284	646	961	285	528	773	247	100	126	135
CN(c1ncccc1CNc1nc(Nc2ccc3c(c2)CC(=O)N3)ncc1C(F)(F)F)S(C)(=O)=O + COc1ccc(Cl)c(Nc2nc3ccccc3nc2NS(=O)(=O)c2cccc(NC(=O)C(C)(C)N)c2)c1 [XL147] (first compound 0.08 µM, partner dose 0.8 µM)	169	199	103	91.5	95.2	52.4	84.5	279	117	1050	143	88.4	99.3	186
C[C@@H](N)c1ccc(C(=O)Nc2ccnc3[nH]ccc23)cc1 + Cn1c(Nc2ccc(C(F)(F)F)cc2)nc2cc(Oc3ccnc(-c4ncc(C(F)(F)F)[nH]4)c3)ccc21 [CHIR265] (first compound 0.4 µM, partner dose 0.08 µM)	263	101	166	157	234	81.1	49.8	266	369	87	173	40.8	115	61.4
Cn1cnc2c(F)c(Nc3ccc(Br)cc3Cl)c(C(=O)NOCCO)cc21 [selumetinib] + NC(=O)c1ccc(N(C(N)=O)c2c(F)cccc2F)nc1-c1ccc(F)cc1F [VX702] (first compound 0.015 µM, partner dose 0.4 µM)	84.2	133	109	167	244	165	214	182	229	122	115	126	103	191
NC(=O)c1ccc(N(C(N)=O)c2c(F)cccc2F)nc1-c1ccc(F)cc1F + OCc1c[nH]c2ccccc12 [Indole-3-carbinol] (first compound 0.4 µM, partner dose 0.8 µM)	88.1	48.7	123	85.8	112	114	93	132	222	53.3	101	80.1	94.7	91.1
CCCCCCCCc1ccc(CCC(N)(CO)CO)cc1 [fingolimod] + Clc1ccc(Nc2nnc(Cc3ccncc3)c3ccccc23)cc1 [vatalanib] (first compound 2 µM, partner dose 2 µM)	136	142	182	159	45.2	100	55.4	113	95.3	40.8	127	47.2	107	62.8
C[C@]1(O)C[C@@H](c2nc(-c3ccc4ccc(-c5ccccc5)nc4c3)c3c(N)nccn32)C1 + O=C(O)[C@@H]1[O][Sb](=[O])([O][Sb]2(=[O])[O][C@H]([C@H](O)CO)[C@H](O)[C@H](C(=O)O)[O]2)[O][C@H]([C@H](O)CO)[C@@H]1O [stibogluconate] (first compound 0.4 µM, partner dose 2 µM)	83.4	104	102	94	40.2	73.1	35.2	45.3	73.8	220	126	50	106	96.8
COc1ccc(C2=N[C@@H](c3ccc(Cl)cc3)[C@@H](c3ccc(Cl)cc3)N2C(=O)N2CCNC(=O)C2)c(OC(C)C)c1 [Nutlin-3] + Cc1nc(Nc2ncc(C(=O)Nc3c(C)cccc3Cl)s2)cc(N2CCN(CCO)CC2)n1 [dasatanib] (first compound 0.1 µM, partner dose 0.004 µM)	93.9	70.4	151	103	95.9	116	50.6	177	203	121	147	84.6	109	22.5
Cn1sc(=O)n(Cc2ccccc2)c1=O + Cn1c(=O)n(-c2ccc(C(C)(C)C#N)cc2)c2c3cc(-c4cnc5ccccc5c4)ccc3ncc21 [NVP-BEZ235] (first compound 0.4 µM, partner dose 0.004 µM)	132	97.4	250	249	87.2	94.1	49.6	83.4	98.5	172	96	44.7	117	91.6
Cn1cnc2c(F)c(Nc3ccc(Br)cc3Cl)c(C(=O)NOCCO)cc21 [selumetinib] + CN1CCN(c2ccc3nc(-c4c(N)c5c(F)cccc5[nH]c4=O)[nH]c3c2)CC1 [Dovitinib] (first compound 0.015 µM, partner dose 0.1 µM)	179	330	59	184	74.7	183	110	49.6	302	294	110	117	95.1	44.8
CCCCCCCCc1ccc(CCC(N)(CO)CO)cc1 [fingolimod] + Cc1nc(Nc2ncc(C(=O)Nc3c(C)cccc3Cl)s2)cc(N2CCN(CCO)CC2)n1 [dasatanib] (first compound 2 µM, partner dose 0.004 µM)	236	88.2	249	116	118	56.7	71.4	421	388	153	124	109	105	212
NC(=O)c1ccc(N(C(N)=O)c2c(F)cccc2F)nc1-c1ccc(F)cc1F + CNC(=O)c1cc(Oc2ccc(NC(=O)Nc3ccc(Cl)c(C(F)(F)F)c3)cc2)ccn1 [sorafenib] (first compound 0.4 µM, partner dose 0.4 µM)	72.2	130	87.1	87.6	87.7	89.9	19.8	57.5	66.6	58.9	99.7	92	111	188

Whole records from above. Order of values: cleaved PARP positive nuclei fraction (MZ2-MEL) [%]	cleaved PARP positive nuclei fraction (MeWo) [%]	cleaved PARP positive nuclei fraction (RPMI7951) [%]	cleaved PARP positive nuclei fraction (RVH-421) [%]	cleaved PARP positive nuclei fraction (SkMel28) [%]	cleaved PARP positive nuclei fraction (SkMel2) [%]	cleaved PARP positive nuclei fraction (SkMel30) [%]	cleaved PARP positive nuclei fraction (UACC62) [%]	cleaved PARP positive nuclei fraction (WM115) [%]	cleaved PARP positive nuclei fraction (WM1716) [%]	cleaved PARP positive nuclei fraction (WM1745) [%]	cleaved PARP positive nuclei fraction (WM3526) [%]	cleaved PARP positive nuclei fraction (WM3619) [%]	cleaved PARP positive nuclei fraction (WM451Lu) [%]
CCCCCCCCc1ccc(CCC(N)(CO)CO)cc1 [fingolimod] + Cc1nc(Nc2ncc(C(=O)Nc3c(C)cccc3Cl)s2)cc(N2CCN(CCO)CC2)n1 [dasatanib] (first compound 2 µM, partner dose 0.004 µM) in the list: 236	88.2	249	116	118	56.7	71.4	421	388	153	124	109	105	212
CC(=O)O[C@@]12CO[C@@H]1C[C@H](O)[C@@]1(C)C(=O)[C@H](O)C3=C(C)[C@@H](OC(=O)[C@H](O)[C@@H](NC(=O)OC(C)(C)C)c4ccccc4)C[C@@](O)([C@@H](OC(=O)c4ccccc4)[C@H]21)C3(C)C [Docetaxel] + CN(c1ncccc1CNc1nc(Nc2ccc3c(c2)CC(=O)N3)ncc1C(F)(F)F)S(C)(=O)=O [PF562271] (first compound 0.0001 µM, partner dose 0.08 µM) in the list: 648	686	510	53.5	284	646	961	285	528	773	247	100	126	135
